These are yes or no findings as the source states them, for the method shown. In cells and extracts the contact can be indirect. Here binding means that the protein was enriched with, or labelled near, the bait; the list need not be complete.
T1: Ski3-TAP (S. cerevisiae) (UniProt P17883)
T1 sequence: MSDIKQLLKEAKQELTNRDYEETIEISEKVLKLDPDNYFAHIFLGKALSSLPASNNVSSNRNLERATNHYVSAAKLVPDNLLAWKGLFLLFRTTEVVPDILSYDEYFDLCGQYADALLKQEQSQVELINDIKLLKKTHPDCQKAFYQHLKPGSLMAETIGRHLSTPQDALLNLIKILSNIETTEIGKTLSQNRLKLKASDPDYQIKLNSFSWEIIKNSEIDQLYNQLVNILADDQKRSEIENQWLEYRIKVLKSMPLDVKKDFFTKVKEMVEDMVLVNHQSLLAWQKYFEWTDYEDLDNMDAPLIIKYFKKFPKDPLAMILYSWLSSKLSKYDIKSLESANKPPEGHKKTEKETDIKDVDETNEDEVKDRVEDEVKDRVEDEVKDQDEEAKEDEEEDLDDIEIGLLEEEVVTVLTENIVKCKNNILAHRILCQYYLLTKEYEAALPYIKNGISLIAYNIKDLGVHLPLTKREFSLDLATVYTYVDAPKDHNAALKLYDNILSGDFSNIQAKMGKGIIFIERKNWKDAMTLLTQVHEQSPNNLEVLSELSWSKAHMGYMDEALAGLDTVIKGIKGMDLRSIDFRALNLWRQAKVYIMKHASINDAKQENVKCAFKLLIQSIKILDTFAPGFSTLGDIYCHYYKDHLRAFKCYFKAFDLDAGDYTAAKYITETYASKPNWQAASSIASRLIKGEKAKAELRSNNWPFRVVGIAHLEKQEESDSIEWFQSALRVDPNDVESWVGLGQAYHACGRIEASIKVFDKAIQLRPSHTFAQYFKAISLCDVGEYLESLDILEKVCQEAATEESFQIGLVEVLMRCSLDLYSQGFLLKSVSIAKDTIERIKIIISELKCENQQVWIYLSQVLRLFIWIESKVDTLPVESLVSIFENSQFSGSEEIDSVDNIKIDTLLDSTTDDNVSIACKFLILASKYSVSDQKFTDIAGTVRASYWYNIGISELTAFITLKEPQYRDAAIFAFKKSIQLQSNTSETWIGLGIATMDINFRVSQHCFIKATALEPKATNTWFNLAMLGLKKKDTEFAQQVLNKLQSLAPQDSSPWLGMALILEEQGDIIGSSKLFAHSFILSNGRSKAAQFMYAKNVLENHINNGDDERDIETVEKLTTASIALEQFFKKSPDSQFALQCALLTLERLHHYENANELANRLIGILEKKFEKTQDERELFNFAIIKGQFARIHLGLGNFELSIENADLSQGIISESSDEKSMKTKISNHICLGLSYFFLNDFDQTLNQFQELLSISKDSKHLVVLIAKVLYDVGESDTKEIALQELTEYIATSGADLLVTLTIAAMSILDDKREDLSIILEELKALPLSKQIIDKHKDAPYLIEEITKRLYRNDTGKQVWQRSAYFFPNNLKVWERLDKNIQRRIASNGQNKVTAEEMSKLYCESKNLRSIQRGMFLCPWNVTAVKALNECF


Biological target: T1, Ski3-TAP (S. cerevisiae)
Assay: affinity purification with mass spectrometry

Binder	binding
Rrp4 (protein, UniProt P38792 1-359) MSEVITITKRNGAFQNSSNLSYNNTGISDDENDEEDIYMHDVNSASKSESDSQIVTPGELVTDDPIWMRGHGTYFLDNMTYSSVAGTVSRVNRLLSVIPLKGRYAPETGDHVVGRIAEVGNKRWKVDIGGKQHAVLMLGSVNLPGGILRRKSESDELQMRSFLKEGDLLNAEVQSLFQDGSASLHTRSLKYGKLRNGMFCQVPSSLIVRAKNHTHNLPGNITVVLGVNGYIWLRKTSQMDLARDTPSANNSSSIKSTGPTGAVSLNPSITRLEEESSWQIYSDENDPSISNNIRQAICRYANVIKALAFCEIGITQQRIVSAYEASMVYSNVGELIEKNVMESIGSDILTAEKMRGNGN	binds
Rrp40 (protein, UniProt Q08285 1-240) MSTFIFPGDSFPVDPTTPVKLGPGIYCDPNTQEIRPVNTGVLHVSAKGKSGVQTAYIDYSSKRYIPSVNDFVIGVIIGTFSDSYKVSLQNFSSSVSLSYMAFPNASKKNRPTLQVGDLVYARVCTAEKELEAEIECFDSTTGRDAGFGILEDGMIIDVNLNFARQLLFNNDFPLLKVLAAHTKFEVAIGLNGKIWVKCEELSNTLACYRTIMECCQKNDTAAFKDIAKRQFKEILTVKEE	binds
Csl4 (protein, UniProt P53859 1-292) MACNFQFPEIAYPGKLICPQYGTENKDGEDIIFNYVPGPGTKLIQYEHNGRTLEAITATLVGTVRCEEEKKTDQEEEREGTDQSTEEEKSVDASPNDVTRRTVKNILVSVLPGTEKGRKTNKYANNDFANNLPKEGDIVLTRVTRLSLQRANVEILAVEDKPSPIDSGIGSNGSGIVAAGGGSGAATFSVSQASSDLGETFRGIIRSQDVRSTDRDRVKVIECFKPGDIVRAQVLSLGDGTNYYLTTARNDLGVVFARAANGAGGLMYATDWQMMTSPVTGATEKRKCAKPF	binds
Rrp41 (protein, UniProt P46948 1-246) MSRLEIYSPEGLRLDGRRWNELRRFESSINTHPHAADGSSYMEQGNNKIITLVKGPKEPRLKSQMDTSKALLNVSVNITKFSKFERSKSSHKNERRVLEIQTSLVRMFEKNVMLNIYPRTVIDIEIHVLEQDGGIMGSLINGITLALIDAGISMFDYISGISVGLYDTTPLLDTNSLEENAMSTVTLGVVGKSEKLSLLLVEDKIPLDRLENVLAIGIAGAHRVRDLMDEELRKHAQKRVSNASAR	binds
Mtr3 (protein, UniProt P48240 1-250) MNVQDRRRLLGPAAAKPMAFSNTTTHVPEKKSTDLTPKGNESEQELSLHTGFIENCNGSALVEARSLGHQTSLITAVYGPRSIRGSFTSQGTISIQLKNGLLEKYNTNELKEVSSFLMGIFNSVVNLSRYPKSGIDIFVYLTYDKDLTNNPQDDDSQSKMMSSQISSLIPHCITSITLALADAGIELVDMAGAGEANGTVVSFIKNGEEIVGFWKDDGDDEDLLECLDRCKEQYNRYRDLMISCLMNQET	binds
Dis3 (enzyme, UniProt Q08162 1-1001) MSVPAIAPRRKRLADGLSVTQKVFVRSRNGGATKIVREHYLRSDIPCLSRSCTKCPQIVVPDAQNELPKFILSDSPLELSAPIGKHYVVLDTNVVLQAIDLLENPNCFFDVIVPQIVLDEVRNKSYPVYTRLRTLCRDSDDHKRFIVFHNEFSEHTFVERLPNETINDRNDRAIRKTCQWYSEHLKPYDINVVLVTNDRLNREAATKEVESNIITKSLVQYIELLPNADDIRDSIPQMDSFDKDLERDTFSDFTFPEYYSTARVMGGLKNGVLYQGNIQISEYNFLEGSVSLPRFSKPVLIVGQKNLNRAFNGDQVIVELLPQSEWKAPSSIVLDSEHFDVNDNPDIEAGDDDDNNESSSNTTVISDKQRRLLAKDAMIAQRSKKIQPTAKVVYIQRRSWRQYVGQLAPSSVDPQSSSTQNVFVILMDKCLPKVRIRTRRAAELLDKRIVISIDSWPTTHKYPLGHFVRDLGTIESAQAETEALLLEHDVEYRPFSKKVLECLPAEGHDWKAPTKLDDPEAVSKDPLLTKRKDLRDKLICSIDPPGCVDIDDALHAKKLPNGNWEVGVHIADVTHFVKPGTALDAEGAARGTSVYLVDKRIDMLPMLLGTDLCSLKPYVDRFAFSVIWELDDSANIVNVNFMKSVIRSREAFSYEQAQLRIDDKTQNDELTMGMRALLKLSVKLKQKRLEAGALNLASPEVKVHMDSETSDPNEVEIKKLLATNSLVEEFMLLANISVARKIYDAFPQTAMLRRHAAPPSTNFEILNEMLNTRKNMSISLESSKALADSLDRCVDPEDPYFNTLVRIMSTRCMMAAQYFYSGAYSYPDFRHYGLAVDIYTHFTSPIRRYCDVVAHRQLAGAIGYEPLSLTHRDKNKMDMICRNINRKHRNAQFAGRASIEYYVGQVMRNNESTETGYVIKVFNNGIVVLVPKFGVEGLIRLDNLTEDPNSAAFDEVEYKLTFVPTNSDKPRDVYVFDKVEVQVRSVMDPITSKRKAELLLK	binds

The next lines start with the values.

binding	Binder
binds	Ska1 (SKI-Associated component 1) (protein, UniProt P36103 1-277) MNKEELLGFLLDDSIDSQKRCVTDQQAYSNWLKNDNDERTAHEESSSQSTIAALNKKKQTEAAQEDIEELLNGLEGIIGGADPRNLKSKSKRKTKKGGSKPREENVNTEKHIVMLEVEDFSDMSTHEDVNGASPSPNLDRSKKNEKRRKNAKELSYDELKDKLEVTTRKSRLECKDLKKKVHGLERRNLELEQRLEELKIENQTLIEINNKLLKNTNEDEINKSQRNKEKDRKRRERRTARRKDERKQEKKQEKKQDNKTSQSFPSSTDMNGQPIEF
binds	Rrp42 (protein, UniProt Q12277 1-265) MSLSVAEKSYLYDSLASTPSIRPDGRLPHQFRPIEIFTDFLPSSNGSSRIIASDGSECIVSIKSKVVDHHVENELLQVDVDIAGQRDDALVVETITSLLNKVLKSGSGVDSSKLQLTKKYSFKIFVDVLVISSHSHPVSLISFAIYSALNSTYLPKLISAFDDLEVEELPTFHDYDMVKLDINPPLVFILAVVGNNMLLDPAANESEVANNGLIISWSNGKITSPIRSVALNDSNVKSFKPHLLKQGLAMVEKYAPDVVRSLENL
binds	Rrp43 (protein, UniProt P25359 1-394) MAESTTLETIEIHPITFPPEVLARISPELSLQRHLSLGIRPCLRKYEEFRDVAIENNTLSRYADAGNIDTKNNILGSNVLKSGKTIVITSITGGIIEETSAAIKDLDDFGEEELFEVTKEEDIIANYASVYPVVEVERGRVGACTDEEMTISQKLHDSILHSRILPKKALKVKAGVRSANEDGTFSVLYPDELEDDTLNETNLKMKRKWSYVLYAKIVVLSRTGPVFDLCWNSLMYALQSVKLPRAFIDERASDLRMTIRTRGRSATIRETYEIICDQTKSVPLMINAKNIAFASNYGIVELDPECQLQNSDNSEEEEVDIDMDKLNTVLIADLDTEAEETSIHSTISILAAPSGNYKQLTLVGGGAKITPEMIKRSLLLSRVRADDLSTRFNI
binds	Rrp45 (protein, UniProt Q05636 1-305) MAKDIEISASESKFILEALRQNYRLDGRSFDQFRDVEITFGKEFGDVSVKMGNTKVHCRISCQIAQPYEDRPFEGLFVISTEISPMAGSQFENGNITGEDEVLCSRIIEKSVRRSGALDVEGLCIVAGSKCWAVRADVHFLDCDGGFIDASCIAVMAGLMHFKKPDITVHGEQIIVHPVNEREPVPLGILHIPICVTFSFFNPQDTEENIKGETNSEISIIDATLKEELLRDGVLTVTLNKNREVVQVSKAGGLPMDALTLMKCCHEAYSIIEKITDQILQLLKEDSEKRNKYAAMLTSENAREI
binds	Rrp46 (protein, UniProt P53256 1-223) MSVQAEIGILDHVDGSSEFVSQDTKVICSVTGPIEPKARQELPTQLALEIIVRPAKGVATTREKVLEDKLRAVLTPLITRHCYPRQLCQITCQILESGEDEAEFSLRELSCCINAAFLALVDAGIALNSMCASIPIAIIKDTSDIIVDPTAEQLKISLSVHTLALEFVNGGKVVKNVLLLDSNGDFNEDQLFSLLELGEQKCQELVTNIRRIIQDNISPRLVV
